The other results are listed elsewhere or left out. Many values rest on one well or one pass, so single values are uncertain.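 Pooled together, 41 HAP1 clones carry intronic fluorescent tags on 61 cancer-associated proteins, and each clone is recognized by its imaging pattern. Measurements are benchmarked against DMSO-treated control wells. dBET6, a BRD4 degrader, served as the positive control.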
Tests used:
[1] = biological target: XPO1 (intron 15 mScarlet tag, HAP1) (UniProt O14980); assay: XPO1 fluorescence intensity change vs DMSO (log2 fold change); higher = more XPO1 protein; details: 6 h
[2] = biological target: BRD4 (intron 10 mScarlet tag, HAP1) (UniProt O60885); assay: BRD4 median nuclear fluorescence intensity change vs DMSO (log2 fold change); higher = more BRD4 protein; details: 6 h

Amino acid sequences for entries named in this document (tags omitted).
UniProt O14980, whole entry: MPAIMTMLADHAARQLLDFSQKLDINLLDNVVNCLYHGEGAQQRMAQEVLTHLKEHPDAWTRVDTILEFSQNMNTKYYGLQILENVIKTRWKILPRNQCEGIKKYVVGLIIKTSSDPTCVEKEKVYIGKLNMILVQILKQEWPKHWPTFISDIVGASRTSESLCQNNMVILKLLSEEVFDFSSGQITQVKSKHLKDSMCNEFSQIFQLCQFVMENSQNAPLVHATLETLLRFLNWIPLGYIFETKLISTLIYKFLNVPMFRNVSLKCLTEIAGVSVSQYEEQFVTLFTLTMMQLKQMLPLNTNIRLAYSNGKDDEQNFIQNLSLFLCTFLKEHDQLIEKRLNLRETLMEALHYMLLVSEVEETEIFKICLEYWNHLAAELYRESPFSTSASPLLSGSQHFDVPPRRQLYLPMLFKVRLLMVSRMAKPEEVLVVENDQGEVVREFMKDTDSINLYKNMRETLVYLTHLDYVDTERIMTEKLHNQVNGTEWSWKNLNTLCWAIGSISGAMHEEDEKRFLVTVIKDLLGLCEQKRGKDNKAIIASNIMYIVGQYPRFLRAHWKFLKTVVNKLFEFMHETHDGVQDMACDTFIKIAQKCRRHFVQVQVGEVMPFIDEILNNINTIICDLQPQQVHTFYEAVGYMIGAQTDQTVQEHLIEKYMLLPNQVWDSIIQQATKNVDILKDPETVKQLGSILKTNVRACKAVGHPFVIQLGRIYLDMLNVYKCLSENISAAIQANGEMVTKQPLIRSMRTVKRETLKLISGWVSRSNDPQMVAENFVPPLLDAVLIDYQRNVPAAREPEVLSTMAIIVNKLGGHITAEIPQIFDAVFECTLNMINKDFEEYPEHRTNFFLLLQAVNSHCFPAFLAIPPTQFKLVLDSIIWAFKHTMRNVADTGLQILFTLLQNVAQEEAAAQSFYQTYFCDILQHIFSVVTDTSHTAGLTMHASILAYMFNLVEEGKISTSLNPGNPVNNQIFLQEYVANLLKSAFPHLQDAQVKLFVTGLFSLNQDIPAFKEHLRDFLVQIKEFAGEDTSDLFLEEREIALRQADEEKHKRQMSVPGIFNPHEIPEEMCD

SMILES	XPO1 fluorescence intensity change (log2) [1]	BRD4 median nuclear fluorescence intensity change (log2) [2]
Cc1c(Br)c2ccccc2n1CC(=O)Nc1ccn(C)n1 (10 µM)	-0.122	-0.0555
Cn1nc(CC(=O)Nc2cc(C(C)(C)C)ccc2O)c2ccccc2c1=O (10 µM)	-0.13	0.088
CC(C)(C)c1ccc(OCC(=O)Nc2ccccc2N2CCOCC2)cc1 (10 µM)	-0.132	-0.101
CC(=O)Nc1ccc(NC(=O)Cc2noc3ccccc23)cc1 (10 µM)	-0.202	-0.067
CCN(c1cc(-c2ccc(CN3CCOCC3)cc2)cc(C(=O)NCc2c(C)cc(C)[nH]c2=O)c1C)C1CCOCC1 (10 µM)	0.135	0.128
COc1cccc2c1N(CC(=O)Nc1ccc(S(C)(=O)=O)cc1)CCC2 (10 µM)	-0.0108	0.0261
O=C(Nc1ccc(-n2ccnc2)c(F)c1)C1CC(c2ccccc2)=NO1 (centres undefined) (10 µM)	0.0554	0.0566
CC(OC(=O)c1ccc(-c2ccc(O)cc2)cc1)C(=O)NCc1ccccc1 (centres undefined) (10 µM)	-0.17	-0.0067
COc1ccc2c(c1)CCCN2C(=O)c1ccccc1 (10 µM)	-0.193	-0.0151
COc1cc(S(=O)(=O)NCCc2c(C)[nH]c3ccc(C)cc23)c(C)cc1C (1 µM)	-0.283	0.0878
N#CC(C#N)=C1C=CC=CN1/C(=C/c1ccc(Cl)cc1)C(=O)c1ccc(Cl)cc1 (0.1 µM)	-0.187	0.136
CC(=O)c1c(C)cc(C)c(CN2CCN(c3cnccn3)CC2)c1C (0.1 µM)	-0.0515	0.0409
CC(=O)c1c(C)cc(C)c(COC(=O)Cc2ccc(N3CCCC3=O)cc2)c1C (10 µM)	0.0156	-0.0294
Cc1cc(NC(=O)c2ccc(CCl)cc2)ccc1S(=O)(=O)Nc1ccc(Br)cc1 (10 µM)	0.0877	0.0436
c1ccc2c(-c3nc4ccccc4[nH]3)cccc2c1 (0.1 µM)	0.00527	-0.0982
Nc1nc(CCl)nc2sc3c(c12)CCCCC3 (10 µM)	-0.0643	0.0611
COc1ccc(/C=C(\C(=O)c2cccs2)N2C=CC=CC2=C(C#N)C#N)c(OC)c1 (10 µM)	-0.014	0.0855
Cc1ccccc1C(=O)Nc1nc2c(s1)CN(C(=O)OC(C)(C)C)CC2 (10 µM)	0.183	0.077
COc1ccc(OCc2noc(CCl)n2)cc1 (10 µM)	-0.131	0.0383
COc1ccc(Cl)cc1NC(=O)CN(C)C(=O)c1cn2ccc(C)cc2n1 (10 µM)	-0.0908	-0.033
Cc1ccc(CNC(N)=NCc2ccccc2)cc1 (10 µM)	0.0385	0.0117
NNC(=O)COc1ccc(C23CC4CC(CC(C4)C2)C3)cc1 (10 µM)	0.0568	-0.0354
COc1cc(C)c(NC(=O)c2ccc(SCc3cn4ccccc4n3)cc2)cc1OC (10 µM)	-0.104	0.0606
N#CC(C#N)=C1C=CC=CN1/C(=C/c1cccc([N+](=O)[O-])c1)C(=O)c1ccccc1 (10 µM)	0.0376	0.0305
CC(Oc1ccc(Cl)cc1)C(=O)Nc1ccccc1-c1nc2ccccc2[nH]1 (centres undefined) (10 µM)	-0.0906	0.0726
COc1ccc(Nc2ncnc3c2c(C)c(C)n3Cc2ccco2)cc1 (10 µM)	-0.164	-0.0139
COc1cc2c(=O)[nH]c(-c3ccc(O)cc3)nc2cc1OC(F)F (10 µM)	0.0487	0.056

Full records from above.
`Cc1ccc(CNC(N)=NCc2ccccc2)cc1` (10 µM) reads XPO1 fluorescence intensity change (log2) [1]: 0.0385; BRD4 median nuclear fluorescence intensity change (log2) [2]: 0.0117
`COc1cc2c(=O)[nH]c(-c3ccc(O)cc3)nc2cc1OC(F)F` (10 µM) reads XPO1 fluorescence intensity change (log2) [1]: 0.0487; BRD4 median nuclear fluorescence intensity change (log2) [2]: 0.056

— the supplement of paper PMC11098740
